Results as given in the supplement of paper PMC12578635.
This is one part of the list. Rule as the data show it: active = 150% or more and inactive = the rest. Many values rest on one well or one pass, so single values are uncertain.

tested on: Staphylococcus aureus JE2-lux inside RAW 264.7 macrophages; experiment: intracellular bacterial bioluminescence relative to DMSO vehicle; higher = higher intracellular bacterial metabolic activity; details: 10 µM; treatment time 4 h; gentamicin 50 µg/ml

Intracellular bacterial bioluminescence, inactive:
CN1C(=O)C2ON(c3ccccc3)C(c3ccccc3)C2C1=O (centres undefined) 112%, COc1ccc(Cn2c(C)nc3cc(NC(=O)Nc4ccc(Cl)cc4)c(C)nc32)cc1 64.1%, N#Cc1c(/N=C/c2ccccc2O)oc(-c2ccco2)c1-c1ccco1 93.5%, COC(=O)C1=C(NC(=O)COc2ccc3ccccc3c2)CCS1 88.9%, COc1ccc(OC)c2[nH]c(=O)c(CCNC(=O)Cc3cccc(C)c3)cc12 66.1%, O=C(Nc1nc2c(s1)CSc1ccccc1-2)c1coc2ccccc2c1=O 125%, COc1ccc(-c2[nH]c3ccccc3c2SCCNC(C)=O)cc1 80.8%, Cc1ccc(C)c(CSc2nc(=O)n3cc(Cl)ccc3n2)c1 67.6%, CCC(=O)Nc1ccc2nc(SCc3cc(=O)n4nc(-c5ccccc5)[nH]c4n3)sc2c1 122%, NC(=O)CC1Nc2cccc3cccc(c23)NC1=O (centres undefined) 16.3%, CCc1cc2c(N(CC)c3ccccc3)ncnc2s1 69.9%, O=C(CCCS(=O)(=O)c1ccccc1)Nc1nc2c(cc3c4c(cccc42)CC3)s1 75.5%, O=C(Nn1cnc2c(cnn2-c2ccccc2)c1=O)c1ccc(F)c(F)c1 149%, Cc1ccc(NS(=O)(=O)c2cc(-c3cc(C(F)(F)F)on3)cs2)c(Br)c1 64.8%, Cc1ccc(CNC(=O)c2cc(-c3ccccn3)[nH]n2)cc1 2.07%, CCOc1ccc(NC=C(S(=O)(=O)c2ccccc2)S(=O)(=O)c2ccccc2)c([N+](=O)[O-])c1 92%, Cc1ccc(NS(=O)(=O)c2ccc3[nH]c(=O)[nH]c3c2)cc1C 97.9%, COc1ccc(/C=C2\SC(=S)N(CCC(=O)Nc3ccc(C(=O)O)c(O)c3)C2=O)cc1OC 118%, Nc1ccc(Cc2ccc(N)c([N+](=O)[O-])c2)cc1[N+](=O)[O-] 70%, CC(C(=O)N1CCCC1)C1CCN(C(=O)c2cc3cc(Cl)ccc3[nH]2)CC1 (centres undefined) 85.2%, CC(=O)C1C(c2ccc(OC(F)F)cc2)NC(=O)NC1(O)C(F)(F)F (centres undefined) 95.9%, Cc1c(NC(=O)c2cc(-c3ccccc3)on2)c(=O)n(-c2ccccc2)n1C 90.4%, Cn1c(=O)[nH]c2cc(-c3noc(CNS(=O)(=O)c4ccccc4)n3)ccc21 118%, CCOC(=O)N1CCN(C(=O)CSc2nc3c(c(=O)n2-c2cccc(OC)c2)SCC3)CC1 60.9%, COc1ccc2sc(N(Cc3ccccn3)C(=O)/C=C/c3cccs3)nc2c1 111%, O=C(Nc1cnc(N2CCN(c3ccccn3)CC2)c(C(=O)O)c1)c1ccc(F)cc1 92.9%, Cc1cc(=O)[nH]c2c(C)cc(S(=O)(=O)NC3CCCCC3)cc12 133%, O=C(CN1C(=O)c2ccccc2S1(=O)=O)Nc1nccs1 112%, CCN1c2ncccc2C(=O)NC12CCN(C(=O)c1ccc3c(c1)OCCO3)CC2 69.1%, O=C(CSc1nc(=O)n(CC2CCCO2)c2c1CCCC2)Nc1nc2ccccc2s1 (centres undefined) 128%, O=C(NNc1nc2cc3c(cc2s1)OCCO3)c1ccccc1 68.4%, Cc1cccc(NC(=O)CSc2ncc(S(=O)(=O)c3ccc(C)c(C)c3)c(N)n2)c1 98.7%, Cn1c(=O)c2c(SCC(=O)NCc3ccc4c(c3)OCO4)ccnc2n(C)c1=O 114%, Brc1cccc2sc(N3CCc4ccccc4C3)nc12 98%, Cc1ccnc(N2CCCC(C(=O)Nc3ccccc3-c3ccccc3)C2)n1 (centres undefined) 96.2%, CCOc1ccc(-c2noc(Cn3ncn4nc(-c5ccc(OC)cc5)cc4c3=O)n2)cc1OC 125%, Cc1ccc(-c2c3c(nc4sc(C(=O)Nc5cccc(F)c5)c(N)c24)CCCC3)o1 95.2%, Cc1cccc(S(=O)(=O)NCCOc2ccc(-c3ccc(F)cc3)nn2)c1 102%, CCN1C(=O)c2cccc3c(NC(=O)CN4C(=O)c5ccccc5C4=O)ccc1c23 36.5%, Cc1ccc(-n2ncc3c(SCC(=O)Nc4nnc(C)s4)ncnc32)c(C)c1 97.1%, Cc1cc(C)cc(NS(=O)(=O)c2c[nH]c(=O)[nH]c2=O)c1 125%, CCCN1CCN(c2ncnc3sc(C(=O)NCc4ccc5c(c4)OCO5)c(C)c23)CC1 116%, COc1ccc(C(=O)Nc2ccc3nc(N4CC(C)CC(C)C4)cc(C(=O)O)c3c2)cc1 (centres undefined) 91.1%, CSC1=C(C#N)C2(CCCCC2)C(c2nc(-c3ccc(C)cc3)cs2)C(=N)N1 (centres undefined) 83.2%, Cn1cnc(S(=O)(=O)N2CCC(c3nnc(C(=O)Nc4ccccc4)s3)CC2)c1 89.6%, O=C(CCCC1=Nc2ccccc2S(=O)(=O)N1)OCc1ccc(F)cc1 87.8%, O=C(CSc1nc(=O)[nH]c2c1CCC2)N1CCCC1 109%, O=c1[nH]cc(S(=O)(=O)N2CCN(Cc3ccccc3)CC2)c(=O)[nH]1 106%, CCOC(=O)c1cnc(SCC(=O)NNC(C)=O)nc1N 108%, Cc1ccc(-c2csc(-c3cccn3CC(=O)NCc3cccc(Br)c3)n2)cc1 91.7%, COc1cc(CSc2nc(=O)n3cc(C)ccc3n2)cc(OC)c1 37.7%, COc1cccc2c(=O)n(CC(=O)NCc3ccc(F)cc3)ccc12 101%, C=CCn1/c(=N/C(=O)CN2C(=O)CCC2=O)sc2cc(C(=O)OC)ccc21 60.7%, COc1ccc(C2CC(c3cccs3)=NN2C(=O)Cn2cnc3c(cnn3CCO)c2=O)cc1 (centres undefined) 89.2%, CCN(C(=O)CCc1nc(-c2nn(-c3ccc(Cl)cc3)c(=O)n(C)c2=O)no1)c1ccccc1C 68.6%, Nc1ncnc(N2CCc3ccccc32)c1[N+](=O)[O-] 95.5%, COc1ccc(-c2nsc3c(SCC(=O)NCc4cccs4)ncnc23)cc1 125%, CCOc1ccc(Nc2nc3c(C)cccn3c(=O)c2C=O)cc1 110%, CCS(=O)(=O)Nc1cccc(C(=O)CC2(O)C(=O)Nc3ccc(Br)cc32)c1 (centres undefined) 103%, Cn1ccnc1CNS(=O)(=O)c1ccc2c(c1)c(=O)n(C)c(=O)n2C 96.8%, Cc1ccc(C(=O)N2CCC(O)CC2)c(N2CCN(C(=O)c3ccco3)CC2)n1 115%, COc1cccc(NC(=O)N(Cc2cc3cccc(C)c3nc2Cl)C2CCCCC2)c1 111%, Cc1n[nH]c2c1C1(C(=O)Nc3ccccc31)C(C#N)=C(N)O2 (centres undefined) 101%, CCc1cccc(C)c1NC(=O)C1CCCN1C(=O)Nc1ccc(C)cc1 (centres undefined) 98.5%, Cc1nc2c(ccc3nc(NC(=O)c4ccccc4I)sc32)s1 117%, CNC(=O)c1ccsc1NC(=O)c1ccc(S(=O)(=O)N(C)C)cc1 78.2%, Nc1ncnc(Sc2ccc(Cl)cc2)c1[N+](=O)[O-] 54.7%, Cc1ccc(S(=O)(=O)c2nc(/C(C#N)=C\c3ccccc3)sc2Cl)cc1 80.9%, Cc1ccc(C)c2[nH]c(=O)c(CCNC(=O)c3ccc([N+](=O)[O-])cc3)cc12 95.4%, COC(=O)c1ccc(C(=O)Nc2ccc3nc(SC)sc3c2)cc1 88.5%, COc1ccc(Cl)c2sc(N3CCN(C(=O)C4COc5ccccc5O4)CC3)nc12 (centres undefined) 100%, Cn1nc(C(=O)N2CCOCC2)c2c1CCN(S(=O)(=O)c1cccc3nsnc13)C2 84%, O=C(Nc1ccc2c(c1)C(=O)NC2=O)c1ccc(-c2nc3ccccc3s2)s1 91.1%, CCOC(=O)CCc1c(C)[nH]c2nc(CO)nn2c1=O 67.6%, CCOc1ccc2nc(NC(=O)c3cc4c(=O)n5cccc(C)c5nc4s3)sc2c1 133%, COC(=O)c1sc2ccccc2c1NC(=O)COc1ccc(Cl)cc1Cl 84.3%, COc1ccccc1NC(=O)Cn1c(C)nc2ccc(NC(=O)c3ccccc3)cc2c1=O 82%, CCCc1cc(=O)[nH]c2nnc(SCc3cccc([N+](=O)[O-])c3)n12 128%, O=C(Nc1nc2c(s1)CCc1ccccc1-2)c1ccc(N2C(=O)CCC2=O)cc1 94.6%, CCC(C)Nc1nc2c(C)cccn2c(=O)c1/C=N/c1ccc([N+](=O)[O-])cc1Cl (centres undefined) 89.9%, Cc1cc(C)cc(-n2c(SCC(=O)Nc3ccc(C(N)=O)cc3)nc3c(c2=O)SCC3)c1 121%, O=C1N=C(N2CCN(c3ccccc3)CC2)S/C1=C/c1ccc(O)cc1 86.2%, Oc1ccc(-c2n[nH]cc2-c2nc3ccccc3s2)c(O)c1 97.7%, CCOC(=O)c1c(-c2ccc(OC)cc2)csc1NC(=O)CSc1nnc2ccccn12 26.4%, CCOC(=O)c1sc(Nc2nc3cc4c(cc3s2)OCO4)cc1C 88%, COc1ccc(Cl)c2sc(N(Cc3cccnc3)C(=O)c3cccc(S(C)(=O)=O)c3)nc12 67.2%, Cn1c(=O)c2c(SCC(=O)Nc3cccc(F)c3)nc(-c3ccc([N+](=O)[O-])cc3)nc2n(C)c1=O 95.4%, CC(C)NC(=O)c1ccc(-c2ccc(F)cc2)nc1 103%, Cc1ccc(OCC(O)Cn2c(N(C)Cc3ccccc3)nc3c2c(=O)[nH]c(=O)n3C)cc1C (centres undefined) 62.4%
